Source: the supplement of paper PMC9233669
Variants at the background level are over-represented here.

How the values were obtained:
biotinyl-Ile-oxazolone = assay: self-aminoacylation, catalytic enhancement (BIO) (fold over background); higher = more active; k-Seq, kA / k0A0; sequences stand for … in GGGAAUGGAUCCACAUCUACGAAUUC…UUCACUGCAGACUUGACGAAGCUG
Procedure, shortened: (§1)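 Mutagenized RNA pools (0.43 μM; 21-nt variable region) were treated with 2–1250 μM of each biotinyl-aminoacyl-oxazolone. Conditions were 50 μL HEPES/NaCl/KCl/MgCl2/CaCl2 buffer, 5% acetonitrile, pH 6.9–7.0, room temperature, 90 minutes. Catalytic enhancement, the median kA relative to the uncatalyzed rate, was derived from streptavidin capture, qPCR and Illumina sequencing.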

biotinyl-Val-oxazolone = assay: self-aminoacylation, catalytic enhancement (BVO) (fold over background); higher = more active; k-Seq, kA / k0A0; sequences stand for … in GGGAAUGGAUCCACAUCUACGAAUUC…UUCACUGCAGACUUGACGAAGCUG
Procedure, shortened: as §1

biotinyl-Leu-oxazolone = assay: self-aminoacylation, catalytic enhancement (BLO) (fold over background); higher = more active; k-Seq, kA / k0A0; sequences stand for … in GGGAAUGGAUCCACAUCUACGAAUUC…UUCACUGCAGACUUGACGAAGCUG
Procedure, shortened: as §1

biotinyl-Met-oxazolone = assay: self-aminoacylation, catalytic enhancement (BMO) (fold over background); higher = more active; k-Seq, kA / k0A0; sequences stand for … in GGGAAUGGAUCCACAUCUACGAAUUC…UUCACUGCAGACUUGACGAAGCUG
Procedure, shortened: as §1

| Sequence | self-aminoacylation (biotinyl-Ile-oxazolone) | self-aminoacylation (biotinyl-Val-oxazolone) | self-aminoacylation (biotinyl-Leu-oxazolone) | self-aminoacylation (biotinyl-Met-oxazolone) |
| --- | --- | --- | --- | --- |
| AAGUGUGCUAAUAGUCGAAAG [Fam3.1 aminoacylation ribozyme variant] | 1.31 | 1.14 | 1.48 | 1.75 |
| AAGUUGGCUAAUAGUCGCAAA [Fam3.1 aminoacylation ribozyme variant] | 1.99 | 1.25 | 1.75 | 1.45 |
| AAGUUUCCUAAUAGUCGCACG [Fam3.1 aminoacylation ribozyme variant] | 1.57 | 1.74 | 1.7 | 1.49 |
| AAGUUUGCAAAUAGUCGCAAG [Fam3.1 aminoacylation ribozyme variant] | 0.763 | 0.752 | 0.665 | 0.734 |
| AAGUUUGCUAAUAUUGGCAAG [Fam3.1 aminoacylation ribozyme variant] | 0.773 | 0.784 | 0.847 | 0.894 |
| AAGUUUGGUAAUAGUCGCAAC [Fam3.1 aminoacylation ribozyme variant] | 1.48 | 1.47 | 1.16 | 1.19 |
| AAUCACCUAGGACAUCGGGUG [Fam2.2 aminoacylation ribozyme variant] | 3.91 | 3.32 | 3.27 | 4.09 |
| ACUGCCCUGGUCAUCGAGUGA [Fam2.1 aminoacylation ribozyme variant] | 13.4 | 14.9 | 34.1 | 36 |
| AGGUUUGCUAAUAGUCACAAG [Fam3.1 aminoacylation ribozyme variant] | 1.15 | 1.12 | 0.985 | 1.12 |
| AGUCACCAAGGUCAUCGGGUG [Fam2.2 aminoacylation ribozyme variant] | 4.38 | 4.7 | 7.67 | 6.59 |
| AUUAACCUAGGUCACCGGGUG [Fam2.2 aminoacylation ribozyme variant] | 3.19 | 3.13 | 4.52 | 4.09 |
| AUUACCAUGGUCAUCGAGAGA [Fam2.1 aminoacylation ribozyme variant] | 0.797 | 0.864 | 0.937 | 0.859 |
| AUUACCCUGGUCAACGGGUGA [Fam2.1 aminoacylation ribozyme variant] | 4.83 | 4.61 | 9.68 | 9.43 |
| AUUACCCUGGUCACCGAGUUA [Fam2.1 aminoacylation ribozyme variant] | 1.64 | 1.75 | 1.26 | 1.52 |
| AUUACUCUGGUCAACGAGUGA [Fam2.1 aminoacylation ribozyme variant] | 3.12 | 2.76 | 5.72 | 5 |
| AUUCACCGAGGUCGUCGGGUG [Fam2.2 aminoacylation ribozyme variant] | 2.55 | 2.55 | 3.03 | 3.16 |
| AUUCACCUAGGCCAUCGGGUA [Fam2.2 aminoacylation ribozyme variant] | 2.42 | 2.21 | 3.81 | 3.31 |
| AUUCACCUAGGCUAUCGGGUG [Fam2.2 aminoacylation ribozyme variant] | 2.43 | 3.06 | 4.84 | 3.76 |
| AUUCACCUAGGUCAACGGGUC [Fam2.2 aminoacylation ribozyme variant] | 0.899 | 1.07 | 0.807 | 0.915 |
| AUUCACCUAUGUGAUCGGGUG [Fam2.2 aminoacylation ribozyme variant] | 1.69 | 1.99 | 2.74 | 2.14 |
| AUUCACCUUGGUCAUCGGUUG [Fam2.2 aminoacylation ribozyme variant] | 0.9 | 1.06 | 0.855 | 0.844 |
| AUUCCCCUUGUCAUCGAGUGA [Fam2.1 aminoacylation ribozyme variant] | 6.44 | 7.45 | 11.4 | 11.1 |
| AUUUCCCUGGUCAUCGAGUGG [Fam2.1 aminoacylation ribozyme variant] | 3.66 | 3.99 | 8.26 | 7.95 |
| CAACACUUUAAGCAAUCGGUC [Fam1B.1 aminoacylation ribozyme variant] | 0.96 | 0.846 | 0.854 | 0.762 |
| CAACUUCAAACAAUCCGUCUG [Fam1A.1 aminoacylation ribozyme variant] | 1.3 | 1.1 | 0.998 | 1.12 |

| Sequence | self-aminoacylation (biotinyl-Ile-oxazolone) | self-aminoacylation (biotinyl-Val-oxazolone) | self-aminoacylation (biotinyl-Leu-oxazolone) | self-aminoacylation (biotinyl-Met-oxazolone) |
| --- | --- | --- | --- | --- |
| CAGUUUGCUAAUAGCCGCAAG [Fam3.1 aminoacylation ribozyme variant] | 1.86 | 1.46 | 1.69 | 1.26 |
| CAGUUUGGUAAUAGUCGCAAG [Fam3.1 aminoacylation ribozyme variant] | 1.85 | 1.67 | 1.73 | 1.73 |
| CCAAACUUCAAGCAAUCGGCC [Fam1B.1 aminoacylation ribozyme variant] | 2.38 | 3.04 | 3.45 | 2.21 |
| CCAAACUUCAAGGAAUCGGUC [Fam1B.1 aminoacylation ribozyme variant] | 1.23 | 1.33 | 1.18 | 1.42 |
| CCACACUCCAAACAAUCGGUC [Fam1B.1 aminoacylation ribozyme variant] | 0.982 | 1.31 | 1.09 | 0.917 |
| CCACACUUCAACCAAUCGGUU [Fam1B.1 aminoacylation ribozyme variant] | 1.12 | 1.64 | 1.32 | 1.2 |
| CCACACUUCAAGAAAUCGGUC [Fam1B.1 aminoacylation ribozyme variant] | 0.799 | 0.825 | 0.898 | 0.744 |
| CCACACUUCAAGUAAUGGGUC [Fam1B.1 aminoacylation ribozyme variant] | 0.868 | 0.66 | 0.803 | 1.04 |
| CCACACUUCAAGUUAUCGGUC [Fam1B.1 aminoacylation ribozyme variant] | 1.09 | 1.06 | 1.04 | 1.01 |
| CCACACUUCAAUCGAUCGGUC [Fam1B.1 aminoacylation ribozyme variant] | 1.07 | 1.14 | 0.842 | 0.825 |
| CCACACUUCUAGCAAUCUGUC [Fam1B.1 aminoacylation ribozyme variant] | 0.424 | 0.502 | 0.354 | 0.378 |
| CCACUCCUCAAGCAAUCGGUC [Fam1B.1 aminoacylation ribozyme variant] | 1.07 | 1.23 | 0.845 | 0.986 |
| CCACUCUUCAACCAAUCGGUC [Fam1B.1 aminoacylation ribozyme variant] | 0.974 | 1.2 | 1.62 | 1.19 |
| CCACUCUUCAAGCAAUCAGUC [Fam1B.1 aminoacylation ribozyme variant] | 0.76 | 0.725 | 0.739 | 0.541 |
| CCACUCUUCAAGGAAUCGGUC [Fam1B.1 aminoacylation ribozyme variant] | 1.12 | 0.968 | 1.13 | 1.05 |
| CCACUCUUCGAGCAAUCGGUC [Fam1B.1 aminoacylation ribozyme variant] | 1.19 | 1.24 | 0.964 | 1.03 |
| CCACUUCAAACAAUCGCUCUG [Fam1A.1 aminoacylation ribozyme variant] | 0.977 | 0.978 | 1 | 0.836 |
| CCAGACUUCAAGAAAUCGGUC [Fam1B.1 aminoacylation ribozyme variant] | 1.15 | 0.991 | 1.33 | 1.04 |
| CCAGACUUCAAGUAAUCGGUC [Fam1B.1 aminoacylation ribozyme variant] | 1.02 | 1.02 | 1.22 | 1.15 |
| CCAUACUUCAACCAAUCGGUC [Fam1B.1 aminoacylation ribozyme variant] | 1.1 | 1.04 | 1.3 | 0.989 |
| CCCAACUUCAAGCAAUCGGUC [Fam1B.1 aminoacylation ribozyme variant] | 1.56 | 1.74 | 2.34 | 1.49 |
| CCCUACUUCAAGCAAUCGGUC [Fam1B.1 aminoacylation ribozyme variant] | 1.49 | 1.46 | 1.76 | 1.45 |
| CCGCACUCCAAGCAAUCGGUC [Fam1B.1 aminoacylation ribozyme variant] | 1.14 | 1.7 | 0.931 | 0.991 |
| CCGCACUUCAAGCAUUCGGUC [Fam1B.1 aminoacylation ribozyme variant] | 2.17 | 2.28 | 1.62 | 1.85 |
| CCUAACUUCAAGCAAUCGGUC [Fam1B.1 aminoacylation ribozyme variant] | 1.18 | 1.01 | 1.54 | 1.02 |
